“Also recorded” adds a separate entry of the source. Part of at least one peptide drawing is inferred or uncertain, most often the ends. Where a SMILES comes first, the peptide text is derived from it. [ ]: non-standard residue; d: D form. ξ: configuration not given here. ξPhe(4-N(CH2CH2Cl)2) = NC(Cc1ccc(N(CCCl)CCCl)cc1)C(=O)O
Columns and labels:
[1] = tested on: Fluc/GFP-Rb-1 cells; assay: Intraocular pharmacodynamic evaluation in tumor-bearing mice; assay type: in vivo
Protocol: Specifically, D-luciferin (150 mg/kg) was injected intraperitoneally into each mouse, followed by general anesthesia with isoflurane. Twenty minutes after anesthesia, ocular bioluminescence signals were collected, with 30 seconds exposure time. On the day of administration (D0) and at the corresponding time points after administration, the bioluminescence signals of the mice eyeballs in each group were collected. […] The whole brain tissue was harvested. The immunohistochemical sections were made and observed.

[2] = tested on: retinoblastoma (Fluc/GFP-Rb-1) cells; assay: Eye drops for treatment of intraocular retinoblastoma, mouse model; assay type: in vivo, Balb/c nude mice; details: eye dropping, 8 mice per group
[3] = tested on: Fluc/GFP-Rb-1 cells; assay: In vivo safety evaluation in orthotopic tumor-bearing mouse model; details: for survival period versus melphalan solution eye dropping and injection groups: once a day, n=5
[4] = eye dropping, brain section analysis

SMILES: CC[C@H](C)[C@H](NC(=O)[C@H](CCCCN)NC(=O)[C@@H](NC(=O)[C@H](CCC(N)=O)NC(=O)[C@@H](N)CCCNC(=N)N)[C@@H](C)CC)C(=O)N[C@@H](Cc1c[nH]c2ccccc12)C(=O)N[C@@H](Cc1ccccc1)C(=O)N[C@@H](Cc1c[nH]c2ccccc12)C(=O)N[C@@H](Cc1c[nH]c2ccccc12)C(=O)N[C@@H](CCCNC(=N)N)C(=O)N[C@@H](CCCNC(=N)N)C(=O)N[C@@H](CCSC)C(=O)N[C@@H](CCCCN)C(=O)N[C@@H](Cc1c[nH]c2ccccc12)C(=O)N[C@@H](CCCCN)C(=O)N[C@@H](CCCCN)C(=O)NC(Cc1ccc(N(CCCl)CCCl)cc1)C(=O)O (some centres unmarked) [89WP-Mel] (H-RQIKIWFWWRRMKWKK[ξPhe(4-N(CH2CH2Cl)2)]-OH)
- proportion of brain metastases of intraocular tumors ([1]; eye dropping): significant reduction
- tumor growth curve versus normal saline eye dropping group ([1]; eye dropping 10 μl once a day, 3.0 mg/mL melphalan content): obvious effect of tumor inhibition
- survival period versus normal saline group ([1]; eye dropping once a day): significantly longer
- share of mice in which brain metastases did not occur [1, 4]: ¼
- share of mice with low brain metastases [1, 4]: ¾
- tumor growth / in vivo efficacy versus melphalan solution intravitreal injection group ([1]; eye dropping, within 30 days after administration): no significant different; also recorded: substantially comparable
- mice with no metastatic tumor cell distribution in the brain sections [2]: two
- survival period versus melphalan solution eye dropping and injection groups ([3]; high concentration (containing 3.0 mg/mL melphalan) eye dropping): prolonged
- size of the vitreous seeds of intraocular tumors, order of groups ([3]; high concentration conjugate solution (3.0 mg/mL melphalan) eye dropping): high concentration conjugate solution eye dropping group≈melphalan solution injection group
- survival period versus melphalan solution eye dropping and injection groups ([3]; low concentration (containing 0.3 mg/mL melphalan) eye dropping): prolonged
- size of the vitreous seeds of intraocular tumors, order of groups ([3]; low concentration conjugate solution (0.3 mg/mL melphalan) eye dropping): melphalan solution eye dropping group>>low concentration conjugate solution eye dropping group

Source: US20250375528A1, “CONJUGATE OF CELL-PENETRATING PEPTIDE AND MELPHALAN, AND PREPARATION CONTAINING CONJUGATE” (priority 2021, published 2025)
